# In the supplement of paper PMC8728848:
# The list shows a part of the results.
# Tests used:
# Assay in all cases: glycan array binding signal (z-score within array); higher = stronger binding
# Conditions in all cases: glycan notation: IUPAC condensed, linker removed
# [1] = target: Gal3S(b1-4)Glc
# Outline: (§1)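 The Consortium for Functional Glycomics database supplied 3228 glycan arrays, of which those lacking an available protein sequence were dropped. The binding signal, a within-array Z-score, was averaged across arrays of the same protein sequence and across linkers. Negative scores can be read as non-binding.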
# [2] = target: Gal3S(b1-4)Glc6S
# Outline: as §1
# [3] = target: Gal3S(b1-4)GlcNAc
# Outline: as §1
# [4] = target: Gal3S(b1-4)[Fuc(a1-3)]Glc6S
# Outline: as §1
# [5] = target: Gal3S(b1-4)[Fuc(a1-3)]GlcNAc
# Outline: as §1
# [6] = target: Gal3S(b1-4)[Fuc(a1-3)]GlcNAc6S
# Outline: as §1
# [7] = target: Gal3S4S(b1-4)GlcNAc
# Outline: as §1
# [8] = target: Gal3S6S(b1-4)GlcNAc
# Outline: as §1
# [9] = target: Gal3S6S(b1-4)GlcNAc6S
# Outline: as §1
# [10] = target: Gal4S(b1-4)GlcNAc
# Outline: as §1
# [11] = target: Gal4S6S(b1-4)GlcNAc
# Outline: as §1
# [12] = target: Gal6P(b1-4)GlcNAc
# Outline: as §1
# [13] = target: Gal6S(b1-3)GlcNAc
# Outline: as §1
# [14] = target: Gal6S(b1-3)GlcNAc6S
# Outline: as §1
# [15] = target: Gal6S(b1-4)Glc
# Outline: as §1
# [16] = target: Gal6S(b1-4)Glc6S
# Outline: as §1
# [17] = target: Gal6S(b1-4)GlcNAc
# Outline: as §1
# [18] = target: Gal6S(b1-4)GlcNAc6S
# Outline: as §1
# [19] = target: GalNAc(a1-3)Gal
# Outline: as §1
# [20] = target: GalNAc(a1-3)GalNAc
# Outline: as §1
# [21] = target: GalNAc(a1-3)GalNAc(b1-3)Gal(a1-4)Gal(b1-4)Glc
# Outline: as §1
# [22] = target: GalNAc(a1-3)GalNAc(b1-3)Gal(a1-4)Gal(b1-4)GlcNAc
# Outline: as §1
# [23] = target: GalNAc(b1-3)Gal
# Outline: as §1
# [24] = target: GalNAc(b1-3)Gal(a1-4)Gal(b1-4)GlcNAc
# Outline: as §1
# [25] = target: GalNAc(b1-3)Gal(a1-4)Gal(b1-4)GlcNAc(b1-3)Gal(b1-4)Glc
# Outline: as §1
# [26] = target: GalNAc(b1-3)Gal(a1-6)Gal(b1-4)Glc
# Outline: as §1
# [27] = target: GalNAc(b1-3)GalNAc
# Outline: as §1
# [28] = target: GalNAc(b1-3)GlcNAc
# Outline: as §1
# [29] = target: GalNAc(b1-4)Gal(b1-4)Glc
# Outline: as §1
# [30] = target: GalNAc(b1-4)GlcNAc
# Outline: as §1
# [31] = target: GalNAc(b1-4)GlcNAc(b1-2)Man
# Outline: as §1
# [32] = target: GalNAc(b1-4)GlcNAc(b1-2)Man(a1-3)[GalNAc(b1-4)GlcNAc(b1-2)Man(a1-6)]Man(b1-4)GlcNAc(b1-4)GlcNAc
# Outline: as §1
# [33] = target: GalNAc(b1-4)GlcNAc(b1-3)GalNAc(b1-4)GlcNAc
# Outline: as §1
# [34] = target: GalNAc(b1-4)GlcNAc6S
# Outline: as §1
# [35] = target: GalNAc(b1-6)GalNAc
# Outline: as §1
# [36] = target: GalNAc3S(b1-4)GlcNAc
# Outline: as §1
# [37] = target: GalNAc3S(b1-4)GlcNAc3S
# Outline: as §1
# [38] = target: GalNAc3S(b1-4)[Fuc(a1-3)]GlcNAc
# Outline: as §1
# [39] = target: GalNAc4S6S(b1-4)GlcNAc
# Outline: as §1
# [40] = target: GalNAc6S(b1-4)GlcNAc
# Outline: as §1
# [41] = target: Glc(a1-4)Glc
# Outline: as §1
# [42] = target: Glc(a1-4)Glc(a1-4)Glc(a1-4)Glc
# Outline: as §1
# [43] = target: Glc(a1-6)Glc(a1-6)Glc
# Outline: as §1
# [44] = target: Glc(a1-6)Glc(a1-6)Glc(a1-6)Glc
# Outline: as §1
# [45] = target: Glc(b1-4)Glc
# Outline: as §1
binder,measurement,setting,value
Nc3LysM-2 (protein) AHVLQARQSVSCDFATAANTGDTCASFAAAWGITEAAFAKLNPGVSCPGNLIAGSEYCVIGTVSTGAPTTTKAATTSTTPPTTTTTTKATTLSTSTTSVSPTGPSPQMPSITSTCNKFYQVQSGDGCWSIEQAQGVSASDFMAWNKAVDAQCDNLWLGYYVCVGVKGGSSPPPTTTTKPASSSAPTPQMPNTVSNCKKFHKVVSGDGCWAIEQAAGISASDFAKWNPYVDAACDNLWLGYYVCIGV,glycan array binding signal (z-score),[1],1.72
same,glycan array binding signal (z-score),[2],0.225
same,glycan array binding signal (z-score),[3],0.749
same,glycan array binding signal (z-score),[4],1.61
same,glycan array binding signal (z-score),[5],0.518
same,glycan array binding signal (z-score),[6],0.593
same,glycan array binding signal (z-score),[7],-2.11
same,glycan array binding signal (z-score),[8],-0.11
same,glycan array binding signal (z-score),[9],-0.858
same,glycan array binding signal (z-score),[10],-1.15
same,glycan array binding signal (z-score),[11],0.412
same,glycan array binding signal (z-score),[12],-0.044
same,glycan array binding signal (z-score),[13],0.632
same,glycan array binding signal (z-score),[14],-1.34
same,glycan array binding signal (z-score),[15],0.198
same,glycan array binding signal (z-score),[16],1.18
same,glycan array binding signal (z-score),[17],-0.694
same,glycan array binding signal (z-score),[18],0.629
same,glycan array binding signal (z-score),[19],-0.057
same,glycan array binding signal (z-score),[20],0.704
same,glycan array binding signal (z-score),[21],0.034
same,glycan array binding signal (z-score),[22],0.024
same,glycan array binding signal (z-score),[23],-0.872
same,glycan array binding signal (z-score),[24],1.51
same,glycan array binding signal (z-score),[25],0.146
same,glycan array binding signal (z-score),[26],-0.246
same,glycan array binding signal (z-score),[27],-0.302
same,glycan array binding signal (z-score),[28],-1.58
same,glycan array binding signal (z-score),[29],-0.34
same,glycan array binding signal (z-score),[30],-1.01
same,glycan array binding signal (z-score),[31],-0.338
same,glycan array binding signal (z-score),[32],1.88
same,glycan array binding signal (z-score),[33],0.67
same,glycan array binding signal (z-score),[34],-1.02
same,glycan array binding signal (z-score),[35],0.877
same,glycan array binding signal (z-score),[36],0.13
same,glycan array binding signal (z-score),[37],1.45
same,glycan array binding signal (z-score),[38],2.05
same,glycan array binding signal (z-score),[39],-0.872
same,glycan array binding signal (z-score),[40],0.893
same,glycan array binding signal (z-score),[41],-0.04
same,glycan array binding signal (z-score),[42],0.646
same,glycan array binding signal (z-score),[43],-0.188
same,glycan array binding signal (z-score),[44],-0.344
same,glycan array binding signal (z-score),[45],-1.11

# Part of the list above in a different format.
binder | measurement | setting | value
Nc3LysM-2 (protein) AHVLQARQSVSCDFATAANTGDTCASFAAAWGITEAAFAKLNPGVSCPGNLIAGSEYCVIGTVSTGAPTTTKAATTSTTPPTTTTTTKATTLSTSTTSVSPTGPSPQMPSITSTCNKFYQVQSGDGCWSIEQAQGVSASDFMAWNKAVDAQCDNLWLGYYVCVGVKGGSSPPPTTTTKPASSSAPTPQMPNTVSNCKKFHKVVSGDGCWAIEQAAGISASDFAKWNPYVDAACDNLWLGYYVCIGV | glycan array binding signal (z-score) | [41] | -0.04
same | glycan array binding signal (z-score) | [42] | 0.646
same | glycan array binding signal (z-score) | [43] | -0.188
same | glycan array binding signal (z-score) | [44] | -0.344
